Some results were stated once for a whole list of compounds, not compound by compound.
Test system: IL-10-secreting T cells (PBMC)
Test: IL-10 ELISPOT: frequency of TCR CDR2 peptide-specific cells in PBMC
Type: cell-based, human
Details: for frequency of responding cells (IL-10) in MS patients: mean; for frequency of responding cells (IL-10) in HC: healthy controls (HC), single peptide
Description: Antigens. Antigens used in the ELISPOT assay included ConA (2 μg/ml) and synthetic TCR peptides (25 μg/ml), including 116 known AV and BV gene products.
T cell frequency. To determine antigen-specific T cell frequency by ELISPOT, blood mononuclear cells were separated by Ficoll density gradient centrifugation, resuspended in 2% human AB serum, and aliquotted at 0.5 and 0.25 million cells in triplicate wells of nitrocellulose-coated microtiter plates (Resolution Technologies) pretreated with anti-IFN-γ (Mabtech, Sweden) or anti-IL-10 (PharMingen, San Diego, Calif.) mAb. Peptides, ConA, and medium were added and the plates incubated at 37 C for 24 hours (IFN-γ) or 48 hours (IL-10). Biotin-labeled secondary mAb for each cytokine was added, followed by streptavidin-alkaline phosphatase (Dako Corp., Carpinteria, Calif.) and substrate (BCIP/NBT phosphatase substrate, KPL, Gaithersburg, Md.) to develop optimal blue staining. Cytokine spots were quantified using an AID Immunospot Analyzer (AID, Cleveland, Ohio) equipped with a high resolution lens camera and analytical software designed for use with the AID system. Mean spots/well were calculated for each Ag, and net counts established after subtraction of background (no Ag). The frequency of Ag-specific spot-forming cells per million PBMC was determined from the average net response observed at two different cell concentrations. The mean net frequency+SEM was calculated for MS patients and HC, and differences compared by Student's t test for significance (p<0.05).
Preparation of ELISPOT plates. Four flat bottom 96 well plates with nitrocellulose membranes were coated overnight with 4 μg/ml mouse anti-IL-10 monoclonal antibodies (Pharmingen), and an additional 4 plates were coated with 10 μg/ml mouse anti-human INF((Mabtech). Two hours before addition of peptides, plates were washed 3× with sterile PBS, pH 7.2, and blocked for one hour at room temperature with 10% FBS in sterile PBS.
Blood processing. Twelve tubes of blood (approximately 120 ml) were collected from healthy controls and MS patients. The blood was immediately separated over a Ficoll gradient by centrifugation for 25 minutes at 2100 rpm at 25 degrees. Peripheral blood mononuclear cells (PBMC) so obtained were washed 3× with cold RPMI and resuspended to 10×10^6 cells per ml.
TCR peptide screens. Sterile stocks containing 1 mg/ml peptide were aliquotted among 4 sterile 96 well polypropylene blocks. Blocks were kept refrigerated for up to one month. Precoated and blocked ELIPSOT plates were washed with 1× with blocking solution and 100 μl of stimulation medium was added (5% fetal bovine serum/1% human AB serum/2 mM pyruvate, 2 mM glutamate, and 50 μg/ml penicillin/streptomycin). 10 μl of each peptide was added per well in triplicate wells. […]

Row | Sequence | frequency of responding cells (IL-10) in MS patients [cells/million] | frequency of responding cells (IL-10) in HC [cells/million]
1 | ALGLGLQLLLWYDEGEERNRG [BV5S4A1T] | > 1000 | > 1000
2 | ALGLGLQFLLWYDEGEERNRG [BV5S4A2T] | > 1000 | > 1000
